# The list shows a part of the results.
# Tests used:
# Assay in all cases: glycan array binding signal (z-score within array); higher = stronger binding
# Conditions in all cases: glycan notation: IUPAC condensed, linker removed
# Fuc(a1-2)Gal = target: Fuc(a1-2)Gal
# In short: (§1)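 Columns mapping to the same glycan were averaged after glycan names were converted to IUPAC-condensed notation. The data come from 3228 arrays in the Consortium for Functional Glycomics database, limited to those with an available protein sequence. Binding is reported as a within-array Z-score averaged across arrays of one protein sequence and across linkers.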
# Fuc(a1-2)Gal(b1-3)GalNAc = target: Fuc(a1-2)Gal(b1-3)GalNAc
# In short: as §1
# [1] = target: Fuc(a1-2)Gal(b1-3)GalNAc(a1-3)[Fuc(a1-2)]Gal(b1-4)Glc
# In short: as §1
# [2] = target: Fuc(a1-2)Gal(b1-3)GalNAc(a1-3)[Fuc(a1-2)]Gal(b1-4)GlcNAc
# In short: as §1
# [3] = target: Fuc(a1-2)Gal(b1-3)GalNAc(b1-3)Gal
# In short: as §1
# [4] = target: Fuc(a1-2)Gal(b1-3)GalNAc(b1-3)Gal(a1-4)Gal(b1-4)Glc
# In short: as §1
# [5] = target: Fuc(a1-2)Gal(b1-3)GalNAc(b1-4)[Neu5Ac(a2-3)]Gal(b1-4)Glc
# In short: as §1
# Fuc(a1-2)Gal(b1-3)GlcNAc = target: Fuc(a1-2)Gal(b1-3)GlcNAc
# In short: as §1
# [6] = target: Fuc(a1-2)Gal(b1-3)GlcNAc(b1-2)Man(a1-3)[Fuc(a1-2)Gal(b1-3)GlcNAc(b1-2)Man(a1-6)]Man(b1-4)GlcNAc(b1-4)GlcNAc
# In short: as §1
# [7] = target: Fuc(a1-2)Gal(b1-3)GlcNAc(b1-2)Man(a1-3)[Fuc(a1-2)Gal(b1-3)GlcNAc(b1-2)Man(a1-6)]Man(b1-4)GlcNAc(b1-4)[Fuc(a1-6)]GlcNAc
# In short: as §1
# [8] = target: Fuc(a1-2)Gal(b1-3)GlcNAc(b1-3)Gal(b1-4)Glc
# In short: as §1
# [9] = target: Fuc(a1-2)Gal(b1-3)GlcNAc(b1-3)GalNAc
# In short: as §1
# [10] = target: Fuc(a1-2)Gal(b1-3)GlcNAc(b1-3)[Fuc(a1-2)Gal(b1-3)GlcNAc(b1-6)]GalNAc
# In short: as §1
# [11] = target: Fuc(a1-2)Gal(b1-3)GlcNAc(b1-3)[Gal(b1-4)GlcNAc(b1-6)]Gal(b1-4)Glc
# In short: as §1
# [12] = target: Fuc(a1-2)Gal(b1-3)GlcNAc(b1-3)[Neu5Ac(a2-6)Gal(b1-4)GlcNAc(b1-6)]Gal(b1-4)Glc
# In short: as §1
# [13] = target: Fuc(a1-2)Gal(b1-3)GlcNAc6S
# In short: as §1
# [14] = target: Fuc(a1-2)Gal(b1-3)[Fuc(a1-4)]GlcNAc
# In short: as §1
# [15] = target: Fuc(a1-2)Gal(b1-3)[Fuc(a1-4)]GlcNAc(b1-2)Man(a1-3)[Fuc(a1-2)Gal(b1-3)[Fuc(a1-4)]GlcNAc(b1-2)Man(a1-3)]Man(b1-4)GlcNAc(b1-4)GlcNAc
# In short: as §1
# [16] = target: Fuc(a1-2)Gal(b1-3)[Fuc(a1-4)]GlcNAc(b1-2)Man(a1-3)[Fuc(a1-2)Gal(b1-3)[Fuc(a1-4)]GlcNAc(b1-2)Man(a1-6)]Man(b1-4)GlcNAc(b1-4)[Fuc(a1-6)]GlcNAc(b1-4)[Fuc(a1-6)]GlcNAc
# In short: as §1
# [17] = target: Fuc(a1-2)Gal(b1-3)[Fuc(a1-4)]GlcNAc(b1-3)[Fuc(a1-3)[Gal(b1-4)]GlcNAc(b1-6)]Gal(b1-4)Glc
# In short: as §1
# [18] = target: Fuc(a1-2)Gal(b1-3)[Fuc(a1-4)]GlcNAc(b1-3)[Gal(b1-4)GlcNAc(b1-6)]Gal(b1-4)Glc
# In short: as §1
# Fuc(a1-2)Gal(b1-4)Glc = target: Fuc(a1-2)Gal(b1-4)Glc
# In short: as §1
# Fuc(a1-2)Gal(b1-4)Glc6S = target: Fuc(a1-2)Gal(b1-4)Glc6S
# In short: as §1
# Fuc(a1-2)Gal(b1-4)GlcNAc = target: Fuc(a1-2)Gal(b1-4)GlcNAc
# In short: as §1
# [19] = target: Fuc(a1-2)Gal(b1-4)GlcNAc(b1-2)Man
# In short: as §1
# [20] = target: Fuc(a1-2)Gal(b1-4)GlcNAc(b1-2)Man(a1-3)[Fuc(a1-2)Gal(b1-4)GlcNAc(b1-2)Man(a1-6)]Man(b1-4)GlcNAc(b1-4)GlcNAc
# In short: as §1
# [21] = target: Fuc(a1-2)Gal(b1-4)GlcNAc(b1-2)Man(a1-3)[Fuc(a1-2)Gal(b1-4)GlcNAc(b1-2)Man(a1-6)]Man(b1-4)GlcNAc(b1-4)[Fuc(a1-6)]GlcNAc
# In short: as §1
# [22] = target: Fuc(a1-2)Gal(b1-4)GlcNAc(b1-2)[Fuc(a1-2)Gal(b1-4)GlcNAc(b1-4)]Man(a1-3)[Fuc(a1-2)Gal(b1-4)GlcNAc(b1-2)Man(a1-6)]Man(b1-4)GlcNAc(b1-4)GlcNAc
# In short: as §1
# [23] = target: Fuc(a1-2)Gal(b1-4)GlcNAc(b1-3)Gal(b1-4)GlcNAc
# In short: as §1
# [24] = target: Fuc(a1-2)Gal(b1-4)GlcNAc(b1-3)Gal(b1-4)GlcNAc(b1-2)Man(a1-3)[Fuc(a1-2)Gal(b1-4)GlcNAc(b1-3)Gal(b1-4)GlcNAc(b1-2)Man(a1-6)]Man(b1-4)GlcNAc(b1-4)GlcNAc
# In short: as §1
# [25] = target: Fuc(a1-2)Gal(b1-4)GlcNAc(b1-3)Gal(b1-4)GlcNAc(b1-3)Gal(b1-4)GlcNAc
# In short: as §1
# [26] = target: Fuc(a1-2)Gal(b1-4)GlcNAc(b1-3)GalNAc
# In short: as §1
# [27] = target: Fuc(a1-2)Gal(b1-4)GlcNAc(b1-3)[Fuc(a1-2)Gal(b1-4)GlcNAc(b1-6)]GalNAc
# In short: as §1
# [28] = target: Fuc(a1-2)Gal(b1-4)GlcNAc(b1-3)[Fuc(a1-3)[Gal(b1-4)]GlcNAc(b1-6)]Gal(b1-4)Glc
# In short: as §1
# [29] = target: Fuc(a1-2)Gal(b1-4)GlcNAc(b1-6)GalNAc
# In short: as §1
# [30] = target: Fuc(a1-2)Gal(b1-4)GlcNAc6S
# In short: as §1
# [31] = target: Fuc(a1-2)Gal(b1-4)[Fuc(a1-3)]GlcNAc
# In short: as §1
# [32] = target: Fuc(a1-2)Gal(b1-4)[Fuc(a1-3)]GlcNAc(b1-2)Man(a1-3)[Fuc(a1-2)Gal(b1-4)[Fuc(a1-3)]GlcNAc(b1-2)Man(a1-6)]Man(b1-4)GlcNAc(b1-4)[Fuc(a1-6)]GlcNAc
# In short: as §1
# [33] = target: Fuc(a1-2)Gal(b1-4)[Fuc(a1-3)]GlcNAc(b1-2)[Fuc(a1-2)Gal(b1-4)[Fuc(a1-3)]GlcNAc(b1-4)]Man(a1-3)[Fuc(a1-2)Gal(b1-4)[Fuc(a1-3)]GlcNAc(b1-2)Man(a1-6)]Man(b1-4)GlcNAc(b1-4)GlcNAc
# In short: as §1
# [34] = target: Fuc(a1-2)Gal(b1-4)[Fuc(a1-3)]GlcNAc(b1-3)Gal(b1-4)[Fuc(a1-3)]GlcNAc
# In short: as §1
# [35] = target: Fuc(a1-2)Gal(b1-4)[Fuc(a1-3)]GlcNAc(b1-3)Gal(b1-4)[Fuc(a1-3)]GlcNAc(b1-3)Gal(b1-4)[Fuc(a1-3)]GlcNAc
# In short: as §1
# [36] = target: Fuc(a1-2)Gal(b1-4)[Fuc(a1-3)]GlcNAc(b1-3)GalNAc
# In short: as §1
# [37] = target: Fuc(a1-2)Gal(b1-4)[Fuc(a1-3)]GlcNAc(b1-3)[Neu5Ac(a2-6)Gal(b1-4)GlcNAc(b1-6)]Gal(b1-4)Glc
# In short: as §1
# [38] = target: Fuc(a1-2)Gal3S(b1-4)GlcNAc
# In short: as §1
# [39] = target: Fuc(a1-2)Gal6S(b1-3)GlcNAc
# In short: as §1
binder,measurement,setting,value
"YghJ (Escherichia coli), E3PJ90 (protein) MNKKFKYKKSLLAAILSATLLAGCDGGGSGSSSDTPPVDSGTGSLPEVKPDPTPNPEPTPEPTPDPEPTPEPIPDPEPTPEPEPEPVPTKTGYLTLGGSQRVTGATCNGESSDGFTFKPGEDVTCVAGNTTIATFNTQSEAARSLRAVEKVSFSLEDAQELAGSDDKKSNAVSLVTSSNSCPANTEQVCLTFSSVIESKRFDSLYKQIDLAPEEFKKLVNEEVENNAATDKAPSTHTSPVVPVTTPGTKPDLNASFVSANAEQFYQYQPTEIILSEGRLVDSQGYGVAGVNYYTNSGRGVTGENGEFSFSWGEAISFGIDTFELGSVRGNKSTIALTELGDEVRGANIDQLIHRYSTTGQNNTRVVPDDVRKVFAEYPNVINEIINLSLSNGATLGEGEQVVNLPNEFIEQFNTGQAKEIDTAICAKTDGCNEARWFSLTTRNVNDGQIQGVINKLWGVDTNYKSVSKFHVFHDSTNFYGSTGNARGQAVVNISNAAFPILMARNDKNYWLAFGEKRAWDKNELAYITEAPSIVRPENVTRETASFNLPFISLGQVGDGKLMVIGNPHYNSILRCPNGYSWNGGVNKDGQCTLNSDPDDMKNFMENVLRYLSNDRWLPDAKSSMTVGTNLETVYFKKHGQVLGNSAPFAFHKDFTGITVKPMTSYGNLNPDEVPLLILNGFEYVTQWGSDPYSIPLRADTSKPKLTQQDVTDLIAYMNKGGSVLIMENVMSNLKEESASGFVRLLDAAGLSMALNKSVVNNDPQGYPDRVRQRRSTPIWVYERYPAVDGKPPYTIDDTTKEVIWKYQQENKPDDKPKLEVASWQEEVEGKQVTQFAFIDEADHKTPESLAAAKQRILDAFPGLEVCKDSDYHYEVNCLEYRPGTDVPVTGGMYVPQYTQLDLSADTAKAMLQAADLGTNIQRLYQHELYFRTNGRQGERLNSVDLERLYQNMSVWLWNETKYRYEEGKEDELGFKTFTEFLNCYTNNAYVGTQCSAELKKSLIDNKMIYGEESSKAGMMNPSYPLNYMEKPLTRLMLGRSWWDLNIKVDVEKYPGVVNTNGETVTQNINLYSAPTKWFAGNMQSTGLWAPAQQEVSIESKSTVPVTVTVALADDLTGREKHEVSLNRPPRVTKTYDLKANDKVTFKVPYGGLIYIKGDSKEVQSADFTFTGVVKAPFYKDGKWQHDLNSPAPLGELESASFVYTTPKKNLNASNYTGGLEQFANDLDTFASSMNDFYGRDSEDGKHRMFTYKNLPGHKHRFANDVQISIGDAHSGYPVMNSSFSPNSTTLPTTPLNDWLIWHEVGHNAAETPLTVPGATEVANNVLALYMQDRYLGKMNRVADDITVAPEYLEESNGQAWARGGAGDRLLMYAQLKEWAEKNFDIKKWYPDGTPLPEFYSEREGMKGWNLFQLMHRKARGDEVSNDKFGGKNYCAESNGNAADTLMLCASWVAQTDLSEFFKKWNPGANAYQLPGASEMSFEGGVSQSAYNTLASLDLPKPEQGPETINQVTEHKMSAE",glycan array binding signal (z-score),Fuc(a1-2)Gal,-0.206
same,glycan array binding signal (z-score),Fuc(a1-2)Gal(b1-3)GalNAc,0.006
same,glycan array binding signal (z-score),[1],-1.48
same,glycan array binding signal (z-score),[2],-1.47
same,glycan array binding signal (z-score),[3],-0.787
same,glycan array binding signal (z-score),[4],-0.141
same,glycan array binding signal (z-score),[5],-0.92
same,glycan array binding signal (z-score),Fuc(a1-2)Gal(b1-3)GlcNAc,0.05
same,glycan array binding signal (z-score),[6],-0.872
same,glycan array binding signal (z-score),[7],-0.092
same,glycan array binding signal (z-score),[8],-0.678
same,glycan array binding signal (z-score),[9],-0.429
same,glycan array binding signal (z-score),[10],1.43
same,glycan array binding signal (z-score),[11],1.78
same,glycan array binding signal (z-score),[12],0.101
same,glycan array binding signal (z-score),[13],2.47
same,glycan array binding signal (z-score),[14],0.02
same,glycan array binding signal (z-score),[15],1.41
same,glycan array binding signal (z-score),[16],1.56
same,glycan array binding signal (z-score),[17],0.131
same,glycan array binding signal (z-score),[18],-0.627
same,glycan array binding signal (z-score),Fuc(a1-2)Gal(b1-4)Glc,0.764
same,glycan array binding signal (z-score),Fuc(a1-2)Gal(b1-4)Glc6S,0.048
same,glycan array binding signal (z-score),Fuc(a1-2)Gal(b1-4)GlcNAc,-0.065
same,glycan array binding signal (z-score),[19],1.68
same,glycan array binding signal (z-score),[20],-0.25
same,glycan array binding signal (z-score),[21],-0.129
same,glycan array binding signal (z-score),[22],0.767
same,glycan array binding signal (z-score),[23],0.111
same,glycan array binding signal (z-score),[24],0.821
same,glycan array binding signal (z-score),[25],-0.578
same,glycan array binding signal (z-score),[26],-0.611
same,glycan array binding signal (z-score),[27],1.44
same,glycan array binding signal (z-score),[28],-0.132
same,glycan array binding signal (z-score),[29],0.563
same,glycan array binding signal (z-score),[30],0.647
same,glycan array binding signal (z-score),[31],-0.238
same,glycan array binding signal (z-score),[32],1.27
same,glycan array binding signal (z-score),[33],1.57
same,glycan array binding signal (z-score),[34],-0.708
same,glycan array binding signal (z-score),[35],-1.34
same,glycan array binding signal (z-score),[36],-1.5
same,glycan array binding signal (z-score),[37],0.326
same,glycan array binding signal (z-score),[38],0.508
same,glycan array binding signal (z-score),[39],-1.54
